Test results reported in PubChem BioAssay AID720504 (National Center for Advancing Translational Sciences (NCATS), 2013).
Screen size: about 360,000 compounds; about 10,000 (2.8%) were called active. This list was built around the results that the source calls inconclusive (neither active nor inactive); the mix of calls is not that of the screen. Calls come from the whole dose curve; as a rule, active = well fitted inhibition curve with a large enough effect; inconclusive = small, poorly fitted or top-dose-only effect; inactive = flat fitted curve, though single readings scatter. Potencies beside an inconclusive call are fits to weak or partial responses and may not hold up.

Protein sequences, listed by entry. Tags and fused reporters are not part of them.
UniProt P53350, whole entry, looked up: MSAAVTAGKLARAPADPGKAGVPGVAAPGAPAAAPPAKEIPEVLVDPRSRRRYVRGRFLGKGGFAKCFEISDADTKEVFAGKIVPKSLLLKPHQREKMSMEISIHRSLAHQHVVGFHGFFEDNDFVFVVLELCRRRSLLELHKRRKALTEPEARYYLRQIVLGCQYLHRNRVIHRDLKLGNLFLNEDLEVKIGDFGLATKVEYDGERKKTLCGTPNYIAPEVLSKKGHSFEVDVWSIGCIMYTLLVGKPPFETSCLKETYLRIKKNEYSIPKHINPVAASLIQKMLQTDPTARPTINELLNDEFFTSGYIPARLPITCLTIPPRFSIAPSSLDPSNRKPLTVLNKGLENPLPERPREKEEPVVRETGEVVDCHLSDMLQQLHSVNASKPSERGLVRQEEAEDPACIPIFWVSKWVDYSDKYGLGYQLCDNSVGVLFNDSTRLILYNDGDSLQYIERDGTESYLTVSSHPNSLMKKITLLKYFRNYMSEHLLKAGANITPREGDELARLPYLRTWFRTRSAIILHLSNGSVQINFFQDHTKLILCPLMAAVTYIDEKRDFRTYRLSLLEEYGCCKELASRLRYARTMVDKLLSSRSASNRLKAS

Target: Serine/threonine-protein kinase PLK1 (Homo sapiens) (UniProt P53350)
Assay: qHTS for Inhibitors of PLK1-PDB (polo-like kinase 1 - polo-box domain): Primary Screen; note: nearly all actives have a fitted effect of over 65% in size; for max response, negative = inhibition: series mostly up to about 57 µM
Conditions: Plk1 PBD binding of FITC phosphopeptide, fluorescence polarization
% is set by controls: 0 for no effect and ±100 for the full control effect; potency is the fitted concentration of half-maximal effect.

SMILES	max response, negative = inhibition	Potency
CC(C)NC(=S)N1CCC(Cc2ccccc2)CC1	inactive: 0.312%	–
O=C(O)c1cccc2c1C(=O)c1ccc(-c3ccc(Cl)c(C(F)(F)F)c3)cc1S2(=O)=O	–	inconclusive: 26.7 µM [inhibitor, single point]
Cc1ccc(N=Nc2ccc(N)cc2C)c(S(N)(=O)=O)c1	–	inconclusive: 37.7 µM [inhibitor, single point]
COc1ccccc1/C=C\C=N\n1c(C2CCCCC2)n[nH]c1=S	–	inconclusive: 18.9 µM [inhibitor, partial curve]
Cc1cccc(N2CCN(C(=O)COc3cccc4c3OC(C)(C)C4)CC2)c1C	inconclusive: -20% [inhibitor]	–
Cn1cccc1/C=N/n1c(-c2ccccc2)n[nH]c1=S	inconclusive: -33.3% [inhibitor]	–
CCOC(=O)c1ccc(CS(=O)c2ccc(Cl)cc2)o1 (configuration not stated)	–	inconclusive: 21.2 µM [inhibitor, partial curve]
Cc1cc(/C=N/NC(=O)CC#N)c(C)n1-c1ccc([N+](=O)[O-])cc1	–	inconclusive: 29.9 µM [inhibitor, single point]
Cc1coc2c(C)c3oc(=O)c(CCC(=O)N4CCC(C(=O)NCCCC(=O)O)(c5ccccc5)CC4)c(C)c3cc12	inactive: -3.64%	–
CCc1[nH]c(=S)c(C#N)c2c1CCCC2	–	active: 26.7 µM
Oc1ccc2ccccc2c1C=Nc1ccccc1-c1nc2ccccc2[nH]1	–	inconclusive: 26.7 µM [inhibitor, single point]
COc1cc2c(cc1NC(=O)CCCN1C(=O)CCC1=O)oc1ccccc12	–	inconclusive: 26.7 µM [inhibitor, partial curve]
CC(=O)c1ccccc1OC(=O)c1ccc([N+](=O)[O-])o1	–	inconclusive: 23.8 µM [inhibitor, partial curve]
O=[N+]([O-])c1cccc(-c2ccc(C(=S)N3CCOCC3)o2)c1	inactive: -15.5%	–
CCOC(=O)c1sc(=S)n(-c2cc(F)ccc2F)c1N	–	inconclusive: 15 µM [inhibitor, partial curve]
CCOC(=O)c1nn(-c2ccc(OC)cc2)c(=O)c2c(N)scc12	inconclusive: -32.1% [inhibitor]	–
CN(Cc1ccco1)S(=O)(=O)c1nnc(NC(=O)c2ccccc2Cl)s1	–	inconclusive: 18.9 µM [inhibitor, single point]
Cc1ccc(C(=O)CSc2nnc(-c3ccco3)n2Cc2ccccc2)cc1	–	active: 2.67 µM
O=S(=O)(Nc1ccc(Br)cc1)c1cccc(NC(=S)NCCN2CCOCC2)c1	–	inconclusive: 18.9 µM [inhibitor, partial curve]
Cc1nn(C2CCS(=O)(=O)C2)c(C)c1C=O (configuration not stated)	–	active: 3.36 µM
S=c1nc(C23CC4CC(CC(C4)C2)C3)[nH][nH]1	–	inconclusive: 26.7 µM [inhibitor, partial curve]
CC(=O)c1ccc(Nc2nc3ccccc3nc2NS(=O)(=O)c2cccs2)cc1	–	inconclusive: 33.6 µM [inhibitor, single point]
Nc1nc(Sc2ccc([N+](=O)[O-])c3nonc23)c2[nH]cnc2n1	–	active: 1.5 µM
Cc1ccc(OCC(=O)N(C)CC(=O)NCc2ccco2)c(Br)c1	–	inconclusive: 37.7 µM [inhibitor, single point]

SMILES	max response, negative = inhibition	Potency
COc1cc(OC)c(C(=O)NCc2cccnc2)cc1OC	–	inconclusive: 23.8 µM [inhibitor, partial curve]
CC(C(=O)NCCC1=CCCCC1)c1ccc([N+](=O)[O-])cc1 (configuration not stated)	inconclusive: -16.6% [inhibitor]	–
O=C1/C(=C\c2cc(Br)cc(Br)c2O)SC(=S)N1Cc1ccccc1	–	active: 9.47 µM
CCN(Cc1ccncc1)C(=O)CCc1nnc(CCc2ccccc2OC)o1	–	inconclusive: 8.44 µM [inhibitor, single point]
CCCc1ccc(S(=O)(=O)N2CCN(Cc3ccco3)CC2)cc1	inactive: -8.54%	–
CCOC(=O)c1sc(NC(=O)CC)c(C#N)c1C	inactive: 1.11%	–
O=C(CSc1ncn[nH]1)Nc1cc(S(=O)(=O)N2CCCC2)ccc1Cl	–	active: 29.9 µM
COc1cccc(-c2nnc(NC(C)=O)o2)c1	inactive: -14%	–
CCCc1cc(=O)n2[nH]cc(-c3ccc(Cl)cc3)c2n1	–	inconclusive: 37.7 µM [inhibitor, single point]
O=C(CC(=O)Nc1ccccc1F)Nc1ccccc1F	–	inconclusive: 8.44 µM [inhibitor, single point]
CCCn1c(C2CCCN2c2nc(-c3ccc(C)cc3)cs2)nc2ccccc21 (configuration not stated)	–	inconclusive: 29.9 µM [inhibitor, partial curve]
N#CC1=C(Nc2ccccc2Cl)SC2(CCCC2)NC1=O	–	inconclusive: 23.8 µM [inhibitor, single point]
CC(C)(C)C(=O)CSc1ncccn1	–	inconclusive: 23.8 µM [inhibitor, partial curve]
N#C/C(=C\C=C\c1ccccc1[N+](=O)[O-])c1nc(-c2ccc3c(c2)OCO3)cs1	inactive: -0.721%	–
O=[N+]([O-])c1ccc(C2=NN(c3ccccc3)C(c3ccco3)C2)cc1 (configuration not stated)	inactive: 27%	–
CSc1nsc(/C=C/Nc2ccc(C(=O)O)cc2)c1C#N	–	inconclusive: 29.9 µM [inhibitor, partial curve]
CN(c1ccccc1)c1ccc(/C=C/[N+](=O)[O-])cc1	–	inconclusive: 1.68 µM [inhibitor, full curve]
Cc1ccc(S(=O)(=O)N2CCC(=O)N(CCOC(=O)Nc3ccc(F)cc3)CC2)cc1	inactive: -0.769%	–
Cc1ncsc1C(=O)O	–	inconclusive: 26.7 µM [inhibitor, single point]
Cc1cccc(C2c3c(n(C)c(=O)n(C)c3=O)N=C3c4ccccc4C(=O)C32)c1 (configuration not stated)	–	inconclusive: 37.7 µM [inhibitor, partial curve]
O=C(O)CCC(=O)c1ccc2c(c1)CCCC2	inconclusive: -30.6% [inhibitor]	–
O=C(CCc1nc2ccccc2s1)OCC(=O)c1ccc[nH]1	inactive: 9.04%	–
CCOC(=O)c1csc(N)n1	inactive: -20.4%	–
Cc1cc(NC(=S)N(Cc2ccc(Cl)cc2)Cc2ccc(C(=O)O)cc2)ccc1Cl	–	active: 29.9 µM

Look-ups from above:
Cc1ncsc1C(=O)O – Potency: inconclusive: 26.7 µM [inhibitor, single point]
CCCn1c(C2CCCN2c2nc(-c3ccc(C)cc3)cs2)nc2ccccc21 (configuration not stated) – Potency: inconclusive: 29.9 µM [inhibitor, partial curve]
O=C(CSc1ncn[nH]1)Nc1cc(S(=O)(=O)N2CCCC2)ccc1Cl – Potency: active: 29.9 µM
N#C/C(=C\C=C\c1ccccc1[N+](=O)[O-])c1nc(-c2ccc3c(c2)OCO3)cs1 – max response, negative = inhibition: inactive: -0.721%
O=C1/C(=C\c2cc(Br)cc(Br)c2O)SC(=S)N1Cc1ccccc1 – Potency: active: 9.47 µM

The listing continues:

SMILES	max response, negative = inhibition	Potency
Cc1ccc(NC(=O)CSc2ccc3c(c2)OCCO3)nc1	–	inconclusive: 18.9 µM [inhibitor, partial curve]
O=C(NC(=S)Nc1ccc(Cc2ccncc2)cc1)c1ccccc1F	inconclusive: -31.4% [inhibitor]	–
CCNS(=O)(=O)c1ccc(NC(=O)Cn2cc([N+](=O)[O-])cn2)cc1	–	inconclusive: 26.7 µM [inhibitor, partial curve]
COc1cc(OC)c(C2CC(=O)N3CN(C)CSC3=C2C#N)cc1OC (configuration not stated)	–	active: 15 µM
COc1ccc(CC2=CC(=O)c3ccccc3C2=O)cc1	–	inconclusive: 23.8 µM [inhibitor, partial curve]
NC(=O)Nc1ccc(C(=O)OCC(=O)Nc2ccc([N+](=O)[O-])cc2C(F)(F)F)cc1	inactive: -7.08%	–
Cn1c(=O)[nH]c(=O)c2cc(C(=O)c3cc(F)ccc3O)cnc21	inactive: -4.75%	–
CC1=NN(C(N)=S)C(=O)C1N=Nc1ccc(O)cc1 (configuration not stated)	–	inconclusive: 29.9 µM [inhibitor, partial curve]
O=C(O)C(Cc1c[nH]c2ccccc12)NS(=O)(=O)c1cccc2nsnc12 (configuration not stated)	inconclusive: -32.2% [inhibitor]	–
COc1cc(/C=C/C(=O)Nc2cc(S(=O)(=O)N3CCOCC3)ccc2N2CCCC2)cc(OC)c1OC	–	active: 6.7 µM
OC(CN1CCN(c2cccc(Cl)c2)CC1)C(c1ccccc1)c1ccccc1 (configuration not stated)	inactive: -1.62%	–
CCc1ccc(-c2cc(C(=O)Nc3ccc(S(=O)(=O)NC(C)=O)cc3)c3ccccc3n2)cc1	–	inconclusive: 26.7 µM [inhibitor, single point]
O=C(NCCc1ccccc1)C1CCCN1C(=O)Nc1ccc(F)cc1 (configuration not stated)	–	active: 18.9 µM
O=C(CSC(=S)N1CCCC1)N1CCN(S(=O)(=O)c2cccc([N+](=O)[O-])c2)CC1	–	inconclusive: 26.7 µM [inhibitor, single point]
Cc1sc(N)nc1-c1c(C)n(C)c2ccccc12	–	inconclusive: 33.6 µM [inhibitor, single point]
Cc1ccc(N(C)C(=O)C2CCCN2S(=O)(=O)c2ccc3c(c2)n(C)c(=O)c(=O)n3C)cc1 (configuration not stated)	–	inconclusive: 23.8 µM [inhibitor, partial curve]
CCNC(=O)C1(C)CCN(Cc2noc(-c3c(C)noc3C)n2)C1 (configuration not stated)	inactive: -5.32%	–
CC(/C=N/n1c(COc2ccccc2)n[nH]c1=S)=C\c1ccco1	–	active: 21.2 µM
Cc1ccc(C(=S)NCS(=O)(=O)c2ccc(C)cc2)cc1	–	inconclusive: 18.9 µM [inhibitor, partial curve]
CN(C)S(=O)(=O)c1ccc(Cl)c(NC(=O)COC(=O)[C@@H]2CCCN2C(=O)c2cccs2)c1	–	inconclusive: 26.7 µM [inhibitor, single point]
CCCCN(C)C1=CC2=CC(=C(C#N)C#N)CCC2CC1 (configuration not stated)	inactive: -184%	–
CCCCNC(=O)c1[nH]c(C2CCNCC2)nc1-c1cccc(C(F)(F)F)c1	inactive: -3.33%	–
S=c1[nH]nc(COc2ccccc2)n1/N=C/c1ccc(Cl)cc1Cl	–	inconclusive: 13.4 µM [inhibitor, partial curve]
Cc1cccc(Cc2cnc(NC(=O)C3=NCCN3)s2)c1	–	inconclusive: 26.7 µM [inhibitor, single point]
